The source of these data is article PMC12040169 (PLOS Biology, 2025).

The list shows a part of the results.

The assay relates to T1, CTL2-GFP (C. trachomatis L2/434/Bu, GFP-expressing).
T1 construct: L2/434/Bu, GFP-expressing
On the set-up: species or system HeLa; Intracellular C. trachomatis growth in HeLa cells, bulk GFP fluorescence relative to DMSO. The following applies: bulk GFP, single well; 28.5 h, 10 µM; inhibitor.
As for `C(=C\c1ccccc1)/CN1CCN(c2ncccn2)CC1` [CBK261909], the “% of control remaining” value is given as 99.3362%. Consider `Fc1cc(CN2CCC3(CC2)OCCc2c3[nH]c3ccc(Br)cc23)cc(F)c1F` [CBK039943], for which the “% of control remaining” value was 29.5608%. As to `CN(Cc1ccccc1)c1nccnc1-c1ccc(CO)cc1` [CBK038067], the “% of control remaining” value worked out at 185.295%.

As for `CCOC(=O)C1=NN(C(=O)c2ccc(Cl)cc2)C(O)(C(C)(C)C)C1` (centres unmarked) [CBK026308], the “% of control remaining” value came to 112.093%. As to `OC1CSc2nc(-c3cnccn3)nn2C1` (centres unmarked) [CBK027096], the “% of control remaining” value turned out to be 122.037%. Take `S=c1[nH]nnn1-c1ccc(Cl)c(Cl)c1` [CBK016327]: the “% of control remaining” value was determined as 148.215%. As for `O=C(NCCCn1cc(Cl)cn1)N1CCCN(Cc2cccs2)CC1` [CBK307279], the figure is 121.42%; as for `CC(=O)Nc1ccc(-c2ccc(C(=O)NCc3cccnc3)cn2)cc1` [CBK158842], 90.13%; as for `N#Cc1ccc(NCc2ccccc2CN2CCCC2CO)nc1` (centres unmarked) [CBK304055], 132.871%.

Regarding `CCN1C(=O)/C(=C/c2cc3c(cc2Cl)OCO3)NC1=S` [CBK265117], the “% of control remaining” value was 100%. As for `O=C(c1ccccc1)C1(CO)COCc2nccn21` (centres unmarked) [CBK009980], the figure is 141.118%; as for `COCOc1ccc(-c2nc(-c3cccs3)cnc2N)cc1` [CBK063977], 165.885%; as for `O=C(Nc1nnc(C(F)(F)F)s1)c1ccc(F)c(Cl)c1` [CBK076831], 96.1138%. In the case of `COc1cc(CN2CCN(S(=O)(=O)c3ccc(Cl)cc3)CC2)cc(OC)c1OC` [CBK074499], the “% of control remaining” value was determined as 109.869%. For `Oc1ccc(-n2ncc(-c3ccc(F)cc3)n2)cc1` [CBK112904] the value was 108.606%; for `Nc1nonc1C(=O)NCc1cccnc1` [CBK025695], 147.001%; for `c1ccc(-c2nnc(Cn3cncn3)o2)cc1` [CBK011113], 120.98%.

As to `COc1cc(OC)cc(C(=O)N[C@@H]2CC[C@@]3(c4ccc(OC)c(OC)c4)CCN(C)[C@H]3C2)c1` [CBK074242T], the “% of control remaining” value was determined as 132.165%. For `O=C(O)CCC(=O)Nc1ccc(Br)c2cccnc12` [CBK265186] the value was 100%; for `CCCCNC(=O)c1ccc2c(c1)NC(=O)C(N1CCCC1)S2` (centres unmarked) [CBK071762], 111.376%.

On to `CN(C)S(=O)(=O)c1cc(C(=O)NCCc2c[nH]c3ccccc23)c(Cl)cc1Cl` [CBK265883], for which the “% of control remaining” value was 120.801%. As for `CC(C)(c1ccc(OC(=O)c2ccc(N)cc2)cc1)c1ccc(OC(=O)c2ccc(N)cc2)cc1` [CBK260962], the figure is 100%; as for `COc1cccc(NC(=O)C(=O)NCCCO)c1` [CBK262095], 106.909%; as for `CCN1CCN(c2ccc(N3C(=O)N[C@@H](C(C)C)C3=O)cc2)CC1` [CBK287953], 146.832%.

Consider `NS(=O)(=O)c1cc(C(=O)OCC(=O)c2ccccc2)c(Cl)cc1Cl` [CBK264542], for which the “% of control remaining” value was found to be 122.143%.

Turning to `CCOc1ccc2nc(NC3=NC(CC(=O)O)C(=O)N3)nc(C)c2c1` (centres unmarked) [CBK263120], the “% of control remaining” value turned out to be 103.213%. For the molecule `O=C(CSCc1nc(O)c2c3c(sc2n1)CCCC3)Nc1ccc(F)cc1` [CBK265568], the “% of control remaining” value is 116.876%. Turning to `COc1cc(CNc2nn[nH]n2)ccc1OCc1ccc(F)cc1Cl` [CBK269536], the “% of control remaining” value is given as 112.378%. For `c1cn2cc(-c3ccoc3)nc(NC3CC3)c2n1` [CBK066720] the value was 175.393%. Take `Cc1cc(Cl)ccc1OCC(=O)Nc1ccc(O)cc1C(=O)O` [CBK131706]: the “% of control remaining” value worked out at 136.195%.

In the case of `CN(C)c1ccc(-c2nc(-c3ccco3)cnc2N)cc1` [CBK063934], the “% of control remaining” value stood at 56.3751%.

As for `CN(C)CCCNC(=O)c1cc(C(C)(C)C)nn1Cc1ccc(Cl)cc1Cl` [CBK107286], the “% of control remaining” value was found to be 90.1996%.

As to `Cc1nc2nc(-c3ccc(F)cc3F)cn2nc1C` [CBK284564], the “% of control remaining” value is reported as 136.597%. As for `COc1c(Cl)cc(Cl)cc1CNC(C)(C)CO` [CBK270212C], the figure is 180.762%; as for `COC(=O)N/N=C(\C)c1ccc(Br)s1` [CBK027886], 120.583%; as for `O=C(O)COc1ccc2c(=O)c(Oc3ccccc3Br)c(C(F)(F)F)oc2c1` [CBK263747], 113.417%. Regarding `CCCn1cnnc1CN(C)C(=O)NCCc1nc2ccccc2s1` [CBK307663], the “% of control remaining” value turned out to be 124.244%. On to `COc1cccc(C(=O)COC(=O)c2cc(-c3ccccc3)nc3ccc(Br)cc23)c1` [CBK265143], for which the “% of control remaining” value was found to be 144.044%. With `CCOC(=O)N1CCN(Cc2ccc(O)c(OC)c2)CC1` [CBK261873], the “% of control remaining” value amounted to 100%. For `OCCOc1ccc(OCCOc2nccnc2N2CCNCC2)cc1` [CBK014349G] the value was 116.407%; for `Cc1nccn1CC(=O)N1CCCC1(C)C(=O)NC1CCCC1` (centres unmarked) [CBK281539], 104.667%. For `CC(=O)Nc1ccc(-c2ccc(COC3CCN(C(=O)c4ccc(F)cc4F)CC3)cc2)cc1` [CBK149216] the value was 106.655%; for `O=C(Nc1cccnc1)c1cccc(S(=O)(=O)N2CCCC2)c1` [CBK269846], 109.567%; for `O=C(O)CSc1nccn1Cc1ccccc1` [CBK262215], 100%. As for `Cc1ccc(S(=O)(=O)N2CC=CCC2)cc1` [CBK058443], the figure is 103.218%.

Turning to `O=C(NC1CCCCC1)c1ccccc1NC(=O)C1CCCCC1C(=O)O` (centres unmarked) [CBK267675], the “% of control remaining” value stood at 114.963%.

Consider `CN(C(=O)c1c[nH]nc1-c1ccc(CNC(=O)c2cccc(Cl)c2)cc1)c1ccccc1` [CBK285597], for which the “% of control remaining” value is on record as 117.44%. For the molecule `O=C(c1cnc[nH]1)N1CCn2nc(C(O)Cc3ccccc3)cc2C1` (centres unmarked) [CBK307558], the “% of control remaining” value is recorded as 114.977%. As for `COc1ccc(C(C)C)cc1-c1cncc(N[C@@H](CO)C(C)C)n1` [CBK065356], the “% of control remaining” value turned out to be 151.843%. As to `Cc1ccccc1Cn1c(CN2CCN(c3ccccc3)CC2)nc2c1c(=O)n(C)c(=O)n2C` [CBK269488], the “% of control remaining” value is 156.435%.

Take `CCN(CC)c1c(C)nc2ccc(C(=O)NC3CCN(C)CC3)cn12` [CBK145965]: the “% of control remaining” value is given as 103.953%.

Turning to `O=C(Nc1nn(Cc2c(F)cccc2Cl)cc1Cl)c1cccnc1` [CBK268154], the “% of control remaining” value was 102.021%. On to `O=C(O)c1cccc(-c2nccnc2NCC2CC2)c1` [CBK038043], for which the “% of control remaining” value was 116.778%.
